Measurements as given in patent US4137236A, “Amino-spiro[oxa(or thia)cycloalkane-penam]-carboxylic” (U C B, Societe Anonyme, priority 1977, dated 1979).

Tested on: beta-lactamase TEM
Assay: Rate of hydrolysis by beta-lactamase measured as NaOH consumed per minute
Type: biochemical
From the text: This method allows the dosage of the penicilloic acid resulting from the hydrolysis of the beta-lactam function by the lytic enzyme. The results of these kinetics, as given in the following Table, clearly show the superiority of compounds E and H as compared with pencillin G.

Structure (SMILES) | Resistance to beta-lactamase TEM as compared with penicillin G (in words)
O=C(Cc1ccccc1)NC1C(=O)N2C1SC1(CC[S+]([O-])CC1)C2C(=O)O (centres unmarked) [Compound H, 6-(2"-phenylacetamido)-2',3',5',6'-tetrahydro-spiro[penam-2,4'-[4H]thiopyran]-3-carboxylic acid 1'-oxide] | very pronounced increase in resistance
O=C(Cc1ccccc1)N[C@@H]1C(=O)N2[C@@H]1SC1(CCSCC1)[C@@H]2C(=O)O (relative stereo) [Compound E, 6-(2"-phenylacetamido)-2',3',5',6'-tetrahydro-spiro[penam-2,4'-[4H]thiopyran]-3-carboxylic acid] | very pronounced increase in resistance
